Structures can show the parent of a compound that is named as a salt. Some of the results follow. Single values are uncertain here, since repeats match poorly.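 JEG3 cells stably carry tetracycline-induced wild-type human LRH-1, a heavily sumoylated nuclear receptor. APOC3 and MUC1 are SUMO-sensitive transcripts, raised by SUMO-less LRH-1 or UBC9 knockdown, measured by RT-qPCR against TBP and DMSO controls. A robust Z-score above +2 or below -2 marked a primary hit before toxicity and TBP filtering.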

In this assay the test system is JEG3 expressing hLRH-1. The assay is described as follows: APOC3 transcript change (ddCt vs TBP and DMSO), Z-score over library; higher = higher APOC3 expression. The note with it: 10 µM; time (hr): 24.
For the compound `COc1cc2c(cc1OC)[C@@]13CCN4CC5=CCO[C@H]6CC(=O)N2[C@H]1[C@H]6[C@H]5C[C@H]43` [brucine], the “APOC3 transcript change (Z-score)” value was -0.928.

As to `Oc1noc2c1CCNC2` [THIP hydrochloride], the “APOC3 transcript change (Z-score)” value was 0.557.

As for `CNCC(=O)c1ccc(O)c(O)c1` [adrenolone hydrochloride], the “APOC3 transcript change (Z-score)” value turned out to be 0.623.

`C[N+]1(C)C2CCC1CC(OC(=O)C(CO)c1ccccc1)C2` (stereo not drawn) [methylatropine nitrate]: the “APOC3 transcript change (Z-score)” value was -0.0292.

For `COc1ccc(Cc2nccc3cc(OC)c(OC)cc23)cc1OC` [Papaverine hydrochloride], the “APOC3 transcript change (Z-score)” value was -1.94.

Consider `C[C@]12CC[C@H]3[C@@H](CC[C@@]45O[C@@H]4C(O)=C(C#N)C[C@]35C)[C@@H]1CC[C@@H]2O` [trilostane], for which the “APOC3 transcript change (Z-score)” value is -0.16.

For the compound `O=[N+]([O-])O[C@@H]1CO[C@H]2[C@@H]1OC[C@@H]2O` [isosorbide mononitrate], the “APOC3 transcript change (Z-score)” value is -0.743.

For `COc1ccc(CCN2CCC(Nc3nc4ccccc4n3Cc3ccc(F)cc3)CC2)cc1` [astemizole], the “APOC3 transcript change (Z-score)” value was -0.541.

Consider `CCN(C)C(=O)Oc1cccc([C@H](C)N(C)C)c1` [rivastigmine tartrate], for which the “APOC3 transcript change (Z-score)” value was -0.092.

For the compound `COc1ccc2c(c1OC)C(=O)O[C@@H]2[C@H]1c2cc3c(cc2CCN1C)OCO3` [hydrastine (1r, 9s)], the “APOC3 transcript change (Z-score)” value was -0.216.

Take `CC[C@@H](CO)NC(=O)[C@@H]1C=C2c3cccc4c3c(cn4C)C[C@H]2N(C)C1` [methysergide maleate]: the “APOC3 transcript change (Z-score)” value amounted to 1.07.

Take `C=C[C@H]1CN2CC[C@H]1C[C@@H]2[C@@H](OC(=O)OCC)c1ccnc2ccc(OC)cc12` [quinine ethyl carbonate]: the “APOC3 transcript change (Z-score)” value is -0.0447.

On to `C[C@]12CC[C@H](O)CC1=CCC1C2CC[C@]2(C)C(=O)CC[C@@H]12` (stereo partly drawn) [prasterone], for which the “APOC3 transcript change (Z-score)” value was -0.558.

In the case of `CC[C@H]1CN2CCC1C[C@@H]2[C@@H](O)c1ccnc2ccc(OC)cc12` (stereo partly drawn) [hydroquinidine], the “APOC3 transcript change (Z-score)” value was determined as 0.483.

In the case of `COc1cc([C@@H]2c3cc4c(cc3[C@H](O)[C@H]3COC(=O)[C@H]23)OCO4)cc(OC)c1OC` [podofilox], the “APOC3 transcript change (Z-score)” value is -2.32.

On to `CCC1(C2=NCCN2)Cc2ccccc2O1` (stereo not drawn) [efaroxan], for which the “APOC3 transcript change (Z-score)” value came to 0.331.

As to `CC(=O)O[C@H]1C[C@H](O[C@H]2[C@@H](O)C[C@H](O[C@H]3[C@@H](O)C[C@H](O[C@H]4CC[C@@]5(C)[C@H](CC[C@@H]6[C@@H]5C[C@@H](O)[C@]5(C)[C@@H](C7=CC(=O)OC7)CC[C@]65O)C4)O[C@@H]3C)O[C@@H]2C)O[C@H](C)[C@H]1O[C@@H]1O[C@H](CO)[C@@H](O)[C@H](O)[C@H]1O` [lanatoside c], the “APOC3 transcript change (Z-score)” value is -6.43.

For the compound `O=[N+]([O-])OCC(CO[N+](=O)[O-])O[N+](=O)[O-]` [nitroglycerin], the “APOC3 transcript change (Z-score)” value is -0.316.

`O=C(O)c1nn(Cc2ccc(Cl)cc2Cl)c2ccccc12` [lonidamine]: the “APOC3 transcript change (Z-score)” value amounted to 0.493.

As for `Cc1ncc(CNC(=O)N(CCCl)N=O)c(N)n1` [nimustine], the “APOC3 transcript change (Z-score)” value amounted to 0.22.

As for `COc1ccc(C(CN(C)C)C2(O)CCCCC2)cc1` (stereo not drawn) [venlafaxine hydrochloride], the “APOC3 transcript change (Z-score)” value was 0.795.

As for `O=P1(NCCCl)OCCCN1CCCl` (stereo not drawn) [ifosfamide], the “APOC3 transcript change (Z-score)” value is -0.512.

Turning to `O=C(O)Cc1ccccc1` [sodium phenylacetate], the “APOC3 transcript change (Z-score)” value turned out to be 0.0778.

Take `CC(C)(O)C(Cl)(Cl)Cl` [chlorobutanol]: the “APOC3 transcript change (Z-score)” value was 2.38.

Regarding `Oc1cccc2cccnc12` [oxyquinoline], the “APOC3 transcript change (Z-score)” value was -0.98.

As for `O=c1n(Cl)c(=O)n(Cl)c(=O)n1Cl` [symclosene], the “APOC3 transcript change (Z-score)” value was -0.173.

As for `C[C@@H]([C@H](O)c1ccccc1)N(C)C` [(-)-Ephedrine, N-Methyl], the “APOC3 transcript change (Z-score)” value was -0.868.

Regarding `C[C@]12CCC(=O)C=C1CCC1C2CC[C@@]2(C)C1CC[C@@H]2O` (stereo partly drawn) [testosterone], the “APOC3 transcript change (Z-score)” value is 0.546.

Take `CC(=O)OC1CN2CCC1CC2` (stereo not drawn) [aceclidine hydrochloride]: the “APOC3 transcript change (Z-score)” value turned out to be 0.434.

As to `C[N+](C)(C)CCCCCCCCCC[N+](C)(C)C` [Decamethonium dibromide], the “APOC3 transcript change (Z-score)” value came out at 0.19.

`CNc1ccc(C(=O)CC(O)CCC(C)C2OC(=O)CC(O)CC(=O)CC(O)CC(O)CC(O)CC(O)CC3(O)CC(O)C(C(=O)OC)C(CC(O[C@@H]4O[C@H](C)[C@@H](O)[C@H](N)[C@@H]4O)/C=C/C=C/C=C/C=C/C=C/C=C/C=C/C2C)O3)cc1` (stereo partly drawn) [mepartricin]: the “APOC3 transcript change (Z-score)” value is -0.943.

As for `NCCc1cc(O)c(O)cc1O` [oxidopamine hydrochloride], the “APOC3 transcript change (Z-score)” value amounted to 0.0319.

On to `O=C1C[C@@H]2OCC=C3CN4CC[C@]56c7ccccc7N1[C@H]5[C@H]2[C@H]3C[C@H]46` [strychnine], for which the “APOC3 transcript change (Z-score)” value came to 0.733.

Consider `NC(=O)c1cc([N+](=O)[O-])cc([N+](=O)[O-])c1` [nitromide], for which the “APOC3 transcript change (Z-score)” value is -0.0516.

On to `Oc1cc(Cl)ccc1Oc1ccc(Cl)cc1Cl` [triclosan], for which the “APOC3 transcript change (Z-score)” value was found to be 0.207.

In the case of `C=C[C@H]1CN2CC[C@H]1C[C@H]2[C@H](O)c1ccnc2ccccc12` [cinchonidine], the “APOC3 transcript change (Z-score)” value is 0.264.

`O=[N+]([O-])O[C@H]1CO[C@H]2[C@@H]1OC[C@H]2O[N+](=O)[O-]` [isosorbide dinitrate]: the “APOC3 transcript change (Z-score)” value is -0.685.

`Nc1ccncc1` [4-Aminopyridine]: the “APOC3 transcript change (Z-score)” value was -1.64.

As for `CN1C[C@H](C(=O)N[C@]2(C)O[C@@]3(O)[C@@H]4CCCN4C(=O)[C@H](Cc4ccccc4)N3C2=O)C[C@@H]2c3cccc4[nH]cc(c34)C[C@H]21` [Dihydroergotamine methanesulfonate], the “APOC3 transcript change (Z-score)” value worked out at 1.27.

For `CC(=O)[C@H]1CCC2[C@@H]3CCC4C[C@H](O)CC[C@]4(C)C3CC[C@@]21C` (stereo partly drawn) [eltanolone], the “APOC3 transcript change (Z-score)” value is -0.3.

On to `C[C@@H]1C[C@@H]([C@H](O)CC2CC(=O)NC(=O)C2)C(=O)[C@@H](C)C1` [cycloheximide], for which the “APOC3 transcript change (Z-score)” value was 0.104.

For `C[N+]12CCC(CC1)C(OC(=O)C(O)(c1ccccc1)c1ccccc1)C2` (stereo not drawn) [clidinium bromide], the “APOC3 transcript change (Z-score)” value came out at 0.262.

Take `O=C(CCCN1CCC2(CC1)C(=O)NCN2c1ccccc1)c1ccc(F)cc1` [Spiperone hydrochloride]: the “APOC3 transcript change (Z-score)” value was -3.91.

Regarding `CC(=O)O[C@H]1CC[C@@]2(C)C(=CCC3C2CC[C@]2(C)C(=O)CCC32)C1` (stereo partly drawn) [praesterone acetate], the “APOC3 transcript change (Z-score)” value was 0.175.

Regarding `CN1C2C[C@H](OC(=O)[C@H](CO)c3ccccc3)C[C@H]1[C@H]1OC21` (stereo partly drawn) [scopolamine hydrobromide], the “APOC3 transcript change (Z-score)” value was -0.265.

`CCOC(=O)c1cncn1[C@H](C)c1ccccc1` [etomidate]: the “APOC3 transcript change (Z-score)” value was -0.0819.

`O=C1C=C2C=C[C@@H]3C[C@@]2(O1)[C@H]1CCCCN31` [securinine]: the “APOC3 transcript change (Z-score)” value is -2.63.

For the compound `CC(=O)Nc1cc([As](=O)(O)O)ccc1O` [acetarsol], the “APOC3 transcript change (Z-score)” value is -0.0977.

Turning to `C=CC[C@]1(O)CC[C@H]2[C@@H]3CCC4=CC(=O)CCC4=C3C=C[C@@]21C` [altrenogest], the “APOC3 transcript change (Z-score)” value was -0.276.

As for `C=CCN=C=S` [allylisothiocyanate], the “APOC3 transcript change (Z-score)” value amounted to 1.3.

Turning to `C1CCc2nnnn2CC1` [pentetrazole], the “APOC3 transcript change (Z-score)” value amounted to 0.296.

For the compound `N[C@@H](Cc1ccc(N(CCCl)CCCl)cc1)C(=O)O` [melphalan], the “APOC3 transcript change (Z-score)” value is 0.304.

Consider `COc1ccc2c(c1)[C@]13CCCC[C@@H]1[C@H](C2)N(C)CC3` [dextromethorphan hydrobromide], for which the “APOC3 transcript change (Z-score)” value was -0.723.

Take `CC(=O)OCC1=C(C(=O)O)N2C(=O)[C@@H](NC(=O)CCCC(N)C(=O)O)C2SC1` (stereo partly drawn) [cephalosporin c sodium]: the “APOC3 transcript change (Z-score)” value is -0.6.

Consider `Nc1nc(N)nc(NC2CC2)n1` [cyromazine], for which the “APOC3 transcript change (Z-score)” value is -0.127.

In the case of `CC(CCc1ccccc1)NC(C)C(O)c1ccc(O)cc1` (stereo not drawn) [Nylidrin hydrochloride], the “APOC3 transcript change (Z-score)” value is -0.316.

On to `C[C@H](N)[C@H](O)c1ccc(O)c(O)c1` [levonordefrin], for which the “APOC3 transcript change (Z-score)” value turned out to be 0.456.

`COc1ccc(CN2CCNCC2)c(OC)c1OC` [trimetazidine dihydrochloride]: the “APOC3 transcript change (Z-score)” value was -1.08.

In the case of `Cc1ccc(/N=C/N(C)/C=N/c2ccc(C)cc2C)c(C)c1` [amitraz], the “APOC3 transcript change (Z-score)” value was -0.255.

On to `Cc1cc(C(C#N)c2ccc(Cl)cc2)c(Cl)cc1NC(=O)c1cc(I)cc(I)c1O` (stereo not drawn) [closantel], for which the “APOC3 transcript change (Z-score)” value was -0.591.

For the compound `C#CCN(C)C(C)Cc1ccccc1` (stereo not drawn) [selegiline hydrochloride], the “APOC3 transcript change (Z-score)” value was 0.406.

As to `O=C1[O][Pt]2([NH][C@@H]3CCCC[C@H]3[NH]2)[O]C1=O` [oxaliplatin], the “APOC3 transcript change (Z-score)” value was -0.297.

Regarding `Cc1cc(O)ccc1Cl` [chlorocresol], the “APOC3 transcript change (Z-score)” value was -0.168.

Take `C[N+]1(C)CCCC(OC(=O)C(O)(c2ccccc2)c2ccccc2)C1` (stereo not drawn) [mepenzolate bromide]: the “APOC3 transcript change (Z-score)” value is 1.1.

Take `CC(O)(CS(=O)(=O)c1ccc(F)cc1)C(=O)Nc1ccc(C#N)c(C(F)(F)F)c1` (stereo not drawn) [bicalutamide]: the “APOC3 transcript change (Z-score)” value was -1.

`c1ccc2c(c1)sc1ccccc12` [dibenzothiophene]: the “APOC3 transcript change (Z-score)” value was -1.18.

On to `O=C(O)CCCc1ccc(N(CCCl)CCCl)cc1` [chlorambucil], for which the “APOC3 transcript change (Z-score)” value is 0.719.

As for `O=C(N/N=C/c1ccc([N+](=O)[O-])o1)c1cc([N+](=O)[O-])cc([N+](=O)[O-])c1O` [nifursol], the “APOC3 transcript change (Z-score)” value came to 0.833.

As to `CC(=O)O[C@H]1C[C@@H]2CC[C@@H]3[C@H](CC[C@@]4(C)[C@H]3C[C@H]([N+]3(C)CCCCC3)[C@@H]4OC(C)=O)[C@@]2(C)C[C@@H]1[N+]1(C)CCCCC1` [pancuronium bromide], the “APOC3 transcript change (Z-score)” value was -1.02.

As to `c1ccc2nc(N3CCNCC3)ccc2c1` [Quipazine dimaleate], the “APOC3 transcript change (Z-score)” value turned out to be 0.267.

With `CC1[C@H](C)OC(=O)CC(O)CC(O)CC(O)CCC(O)C(O)C[C@]2(O)CC(O)C(C(=O)O)C(CC(OC3O[C@H](C)[C@@H](O)[C@H](N)[C@@H]3O)/C=C/C=C/C=C/C=C/CC/C=C/C=C/[C@H](C)[C@H]1O)O2` (stereo partly drawn) [nystatin], the “APOC3 transcript change (Z-score)” value was -0.417.

`O=c1[nH]c(=O)n(Cl)c(=O)n1Cl` [troclosene potassium]: the “APOC3 transcript change (Z-score)” value was found to be 0.301.

Regarding `CCC(C)[C@H]1O[C@]2(C=C[C@@H]1C)C[C@@H]1C[C@@H](C/C=C(\C)[C@@H](OC3C[C@H](OC)C(O[C@H]4C[C@H](OC)[C@@H](O)[C@H](C)O4)[C@H](C)O3)[C@@H](C)/C=C/C=C3\CO[C@@H]4[C@H](O)C(C)=C[C@@H](C(=O)O1)[C@]34O)O2` (stereo partly drawn) [avermectin b1], the “APOC3 transcript change (Z-score)” value was 0.364.
